PubChem BioAssay AID1508597 | Cure First | 2020
This is an unselected part of the about 2,100 reagents, in one setting of the screen. 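Calls flag viability under 80% in either arm, not effects specific to rucaparib; the reference for percent is not stated.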 A reagent listed more than once was tested more than once; the source does not tell the runs apart. Not stated in the record: the 100% reference.

Aim: 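Genes whose silencing sensitises or protects ovarian cancer cells against rucaparib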 (primary screen)
Cells: human ovarian carcinoma lines grown from tumours: OCI-P5x (papillary serous) and OCI-C5x (clear cell)
Reagent: siRNA pool against human genes, 1.25 pmol siRNA per well
Duration: 72 h or 96 h, depending on the cell culture
Conditions: rucaparib 20 µM (about IC30) or vehicle, present until read-out
Rucaparib or vehicle: Vehicle
Cell line: OCI-P5x (serous)
Measurement: 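Luminescent ATP-based viability assay read 72 or 96 h after transfection, depending on culture, given as normalised percent viability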
Direction: viability, normalised: higher = more viable cells remaining
Rule for the call: 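a well counts as a hit if its normalised viability is under 80 percent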
Meaning of the calls: active = viability under 80%; inactive = viability 80% or more

no.	target gene	technical replicate	viability, normalised (%)	Call
1	RAG1 (recombination activating 1)	1	61.8	active
2	RAG1 (recombination activating 1)	2	59.3	active
3	RAG1 (recombination activating 1)	3	72.3	active
4	DDR1 (discoidin domain receptor tyrosine kinase 1)	1	81.5	inactive
5	DDR1 (discoidin domain receptor tyrosine kinase 1)	2	80.7	inactive
6	DDR1 (discoidin domain receptor tyrosine kinase 1)	3	76.2	active
7	EIF2AK4 (eukaryotic translation initiation factor 2 alpha kinase 4)	1	96.3	inactive
8	EIF2AK4 (eukaryotic translation initiation factor 2 alpha kinase 4)	2	137	inactive
9	EIF2AK4 (eukaryotic translation initiation factor 2 alpha kinase 4)	3	94.4	inactive
10	STK25 (serine/threonine kinase 25)	1	74.6	active
11	STK25 (serine/threonine kinase 25)	2	67.9	active
12	STK25 (serine/threonine kinase 25)	3	69.1	active
13	JAK2 (Janus kinase 2)	1	76.4	active
14	JAK2 (Janus kinase 2)	1	131	inactive
15	JAK2 (Janus kinase 2)	2	114	inactive
16	JAK2 (Janus kinase 2)	2	78.4	active
17	JAK2 (Janus kinase 2)	3	122	inactive
18	JAK2 (Janus kinase 2)	3	80.9	inactive
19	CDK16 (cyclin dependent kinase 16)	1	78.9	active
20	CDK16 (cyclin dependent kinase 16)	2	67.8	active
21	CDK16 (cyclin dependent kinase 16)	3	77.3	active

Quoted from the entries so far (6 entries):
no.	target gene	technical replicate	viability, normalised (%)	Call
3	RAG1 (recombination activating 1)	3	72.3	active
4	DDR1 (discoidin domain receptor tyrosine kinase 1)	1	81.5	inactive
5	DDR1 (discoidin domain receptor tyrosine kinase 1)	2	80.7	inactive
6	DDR1 (discoidin domain receptor tyrosine kinase 1)	3	76.2	active
7	EIF2AK4 (eukaryotic translation initiation factor 2 alpha kinase 4)	1	96.3	inactive
8	EIF2AK4 (eukaryotic translation initiation factor 2 alpha kinase 4)	2	137	inactive

The list goes on.
no.	target gene	technical replicate	viability, normalised (%)	Call
22	ADCK5 (aarF domain containing kinase 5)	1	78.4	active
23	ADCK5 (aarF domain containing kinase 5)	2	70.3	active
24	ADCK5 (aarF domain containing kinase 5)	3	57.8	active
25	DGKE (diacylglycerol kinase epsilon)	1	96.9	inactive
26	DGKE (diacylglycerol kinase epsilon)	2	98.3	inactive
27	DGKE (diacylglycerol kinase epsilon)	3	98.3	inactive
28	SLC1A2	1	75.4	active
29	SLC1A2	2	62.5	active
30	SLC1A2	3	70.6	active
31	POLL (DNA polymerase lambda)	1	64.5	active
32	POLL (DNA polymerase lambda)	2	63.4	active
33	POLL (DNA polymerase lambda)	3	61.9	active
34	NSD2 (nuclear receptor binding SET domain protein 2)	1	54.2	active
35	NSD2 (nuclear receptor binding SET domain protein 2)	2	49.7	active
36	NSD2 (nuclear receptor binding SET domain protein 2)	3	62.6	active
37	AKAP13 (A-kinase anchoring protein 13)	1	83.3	inactive
38	AKAP13 (A-kinase anchoring protein 13)	2	94.6	inactive
39	AKAP13 (A-kinase anchoring protein 13)	3	90.1	inactive
